Reference: the supplement of paper PMC4604168 (melanoma cell lines)
The other results are listed elsewhere or left out. Single values are uncertain, as repeats are few or missing.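 The apoptosis fraction was the count of cleaved-PARP antibody-stained nuclei relative to all DNA-stained nuclei, imaged in 1,536-well plates. Screening doses were set so most cells survived, and baseline and induced cleaved-PARP levels vary greatly across cell lines.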

What was measured:
Assay in all cases: cleaved PARP positive nuclei fraction relative to DMSO control; melanoma cells; higher = more apoptosis
Conditions in all cases: library dose: low library concentration; 72 h
501Mel = test system: 501Mel
A101D = test system: A101D
A2058 = test system: A2058
C32 = test system: C32
CBRC008 = test system: CBRC008 (line from a melanoma biopsy)
CBRC014 = test system: CBRC014 (line from a melanoma biopsy)
CBRC016 = test system: CBRC016 (line from a melanoma biopsy)
CBRC017 = test system: CBRC017 (line from a melanoma biopsy)

| Compound | cleaved PARP positive nuclei fraction (501Mel) | cleaved PARP positive nuclei fraction (A101D) | cleaved PARP positive nuclei fraction (A2058) | cleaved PARP positive nuclei fraction (C32) | cleaved PARP positive nuclei fraction (CBRC008) | cleaved PARP positive nuclei fraction (CBRC014) | cleaved PARP positive nuclei fraction (CBRC016) | cleaved PARP positive nuclei fraction (CBRC017) |
| --- | --- | --- | --- | --- | --- | --- | --- | --- |
| N.N.[Cl][Pt][Cl] [cisplatin] + CC(C)CCN1c2nc(Nc3cc(F)c(O)c(F)c3)ncc2N(C)C(=O)C1C [BID1870] (first compound 1.6 µM, partner dose 0.2 µM) | 136% | 28.5% | 190% | 38.5% | 247% | 118% | 215% | 237% |
| O=C(Nc1cc(C(F)(F)F)cc(C(F)(F)F)c1)c1cc(Cl)ccc1O + Cc1cc(SCc2sc(-c3ccc(C(F)(F)F)c(F)c3)nc2C)ccc1OCC(=O)O [GW0742] (first compound 0.016 µM, partner dose 2 µM) | 71.7% | 32.6% | 102% | 60.3% | 320% | 83.7% | 85.5% | 127% |
| N.N.[Cl][Pt][Cl] [cisplatin] + Cc1cc(SCc2sc(-c3ccc(C(F)(F)F)c(F)c3)nc2C)ccc1OCC(=O)O [GW0742] (first compound 1.6 µM, partner dose 2 µM) | 39.8% | 18.2% | 85.6% | 148% | 176% | 91.7% | 115% | 93.4% |
| CO[C@H]1C[C@@H]2CC[C@@H](C)[C@@](O)(O2)C(=O)C(=O)N2CCCC[C@H]2C(=O)O[C@H]([C@H](C)C[C@@H]2CC[C@@H](OCCO)[C@H](OC)C2)CC(=O)[C@H](C)/C=C(\C)[C@@H](O)[C@@H](OC)C(=O)[C@H](C)C[C@H](C)/C=C/C=C/C=C/1C [everolimus] + Cc1cc(SCc2sc(-c3ccc(C(F)(F)F)c(F)c3)nc2C)ccc1OCC(=O)O [GW0742] (first compound 0.02 µM, partner dose 2 µM) | 182% | 19.3% | 51.7% | 220% | 117% | 83% | 6630% | 86.5% |
| N.N.[Cl][Pt][Cl] [cisplatin] + O=C1NC(=O)/C(=C/c2ccc(-c3ccc(F)cc3O)o2)S1 [AS252424] (first compound 1.6 µM, partner dose 1 µM) | 410% | 35% | 38.7% | 72% | 614% | 94.7% | 52.8% | 227% |
| CCCCCCCCCCCCCCCCCCOP(=O)([O-])OC1CC[N+](C)(C)CC1 [Perifosine] + Cc1cc(SCc2sc(-c3ccc(C(F)(F)F)c(F)c3)nc2C)ccc1OCC(=O)O [GW0742] (first compound 0.4 µM, partner dose 2 µM) | 83.5% | 39.8% | 138% | 49.9% | 43.8% | 123% | 43.2% | 80.9% |
| Cn1cc(C2=C(c3cn(C4CCN(Cc5ccccn5)CC4)c4ccccc34)C(=O)NC2=O)c2ccccc21 [Enzastaurin] + N#Cc1c(O)c2c(-c3ccc(-c4ccccc4O)cc3)csc2[nH]c1=O [A769662] (first compound 0.8 µM, partner dose 2 µM) | 158% | 15.9% | 232% | 66.1% | 187% | 117% | 120% | 115% |
| CC(=O)c1c(C)c2cnc(Nc3ccc(N4CCNCC4)cn3)nc2n(C2CCCC2)c1=O [palbociclib] + O=C(Oc1ccc([N+](=O)[O-])cc1)N1CCC(C(O)(c2ccc3c(c2)OCO3)c2ccc3c(c2)OCO3)CC1 [JZL184] (first compound 0.04 µM, partner dose 1 µM) | 123% | 38% | 85% | 24.9% | 77.6% | 123% | 111% | 95.3% |
| C[C@]12O[C@H](C[C@]1(O)CO)n1c3ccccc3c3c4c(c5c6ccccc6n2c5c31)CNC4=O [Lestaurtinib] + Cc1cc([N+](=O)[O-])ccc1NS(=O)(=O)c1cc(Cl)ccc1Cl [FH535] (first compound 0.004 µM, partner dose 1 µM) | 63.2% | 63.4% | 190% | 283% | 2180% | 183% | 3050% | 322% |
| CNC(=O)c1cc(Oc2ccc(NC(=O)Nc3ccc(Cl)c(C(F)(F)F)c3)cc2)ccn1 [sorafenib] + C/C(O)=C(\C#N)C(=O)Nc1cc(Br)ccc1Br [LFM-A13] (first compound 0.4 µM, partner dose 2 µM) | 75.6% | 70.6% | 53.8% | 32.5% | 111% | 95.7% | 72% | 87.4% |
| C[C@]12O[C@H](C[C@]1(O)CO)n1c3ccccc3c3c4c(c5c6ccccc6n2c5c31)CNC4=O [Lestaurtinib] + O=S(=O)(c1ccccc1)N(CC(F)(F)F)c1ccc(C(O)(C(F)(F)F)C(F)(F)F)cc1 [T0901317] (first compound 0.004 µM, partner dose 1.4 µM) | 176% | 45.2% | 90.5% | 82.9% | 153% | 181% | 104% | 81.8% |
| C[C@]12O[C@H](C[C@]1(O)CO)n1c3ccccc3c3c4c(c5c6ccccc6n2c5c31)CNC4=O [Lestaurtinib] + CCc1ccc(CCOc2ccc(CC3SC(=O)NC3=O)cc2)nc1 [pioglitazone] (first compound 0.004 µM, partner dose 2 µM) | 95.2% | 10.4% | 97% | 186% | 48.1% | 82.6% | 77.6% | 97.7% |
| O=C(/C=C/c1cccnc1)NCCCCC1CCN(C(=O)c2ccccc2)CC1 + Cc1cc(SCc2sc(-c3ccc(C(F)(F)F)c(F)c3)nc2C)ccc1OCC(=O)O [GW0742] (first compound 0.01 µM, partner dose 2 µM) | 67.8% | 46% | 66.1% | 77% | 4110% | 108% | 152% | 314% |
| C[C@]12O[C@H](C[C@]1(O)CO)n1c3ccccc3c3c4c(c5c6ccccc6n2c5c31)CNC4=O [Lestaurtinib] + O=C1NC(=O)/C(=C/c2ccc(-c3ccc(F)cc3O)o2)S1 [AS252424] (first compound 0.004 µM, partner dose 1 µM) | 160% | 21.8% | 107% | 96.3% | 104% | 88.8% | 129% | 95.7% |
| Cn1cc(C2=C(c3cn(C4CCN(Cc5ccccn5)CC4)c4ccccc34)C(=O)NC2=O)c2ccccc21 [Enzastaurin] + Cc1cc(SCc2sc(-c3ccc(C(F)(F)F)c(F)c3)nc2C)ccc1OCC(=O)O [GW0742] (first compound 0.8 µM, partner dose 2 µM) | 76.9% | 37.6% | 35.6% | 78.2% | 317% | 109% | 50.6% | 172% |
| O=c1[nH]nc(Sc2ncc([N+](=O)[O-])s2)n1-c1ccc2c(c1)OCCO2 + O=C(Oc1ccc([N+](=O)[O-])cc1)N1CCC(C(O)(c2ccc3c(c2)OCO3)c2ccc3c(c2)OCO3)CC1 [JZL184] (first compound 0.2 µM, partner dose 1 µM) | 75.9% | 29.8% | 105% | 156% | 92.4% | 114% | 48.6% | 145% |
| NC(=O)c1ccc(N(C(N)=O)c2c(F)cccc2F)nc1-c1ccc(F)cc1F + C/C(O)=C(\C#N)C(=O)Nc1cc(Br)ccc1Br [LFM-A13] (first compound 0.4 µM, partner dose 2 µM) | 67.4% | 14.7% | 63.6% | 90.6% | 113% | 119% | 60.5% | 100% |
| N.N.[Cl][Pt][Cl] [cisplatin] + COc1ccc2c(c1)CCC1C2CCC2(C)C(NCCCCCCN3C(=O)C=CC3=O)CCC12 [U73122] (first compound 1.6 µM, partner dose 0.4 µM) | 31.3% | 10.6% | 89.6% | 222% | 59.8% | 100% | 87.5% | 112% |
| Cn1cc(C2=C(c3cn(C4CCN(Cc5ccccn5)CC4)c4ccccc34)C(=O)NC2=O)c2ccccc21 [Enzastaurin] + O=C(Nc1ccccc1)c1cc([N+](=O)[O-])ccc1Cl [GW9662] (first compound 0.8 µM, partner dose 2 µM) | 67.5% | 35.6% | 126% | 87.1% | 128% | 118% | 39.4% | 82.7% |
| C[C@@H](Oc1cc(-c2cnn(C3CCNCC3)c2)cnc1N)c1c(Cl)ccc(F)c1Cl [Crizotinib] + C/C(O)=C(\C#N)C(=O)Nc1cc(Br)ccc1Br [LFM-A13] (first compound 0.2 µM, partner dose 2 µM) | 76.8% | 47% | 84.2% | 39.3% | 114% | 103% | 47% | 81.2% |
| N.N.[Cl][Pt][Cl] [cisplatin] + COc1ccc(COc2ccc(Cc3cnc(N)nc3N)cc2OC)cc1 [GW2580] (first compound 1.6 µM, partner dose 1 µM) | 185% | 23.8% | 160% | 72.1% | 267% | 86.3% | 56.9% | 137% |
| CC[C@]1(O)C[C@H]2CN(CCc3c([nH]c4ccccc34)[C@@](C(=O)OC)(c3cc4c(cc3OC)N(C=O)[C@H]3[C@@](O)(C(=O)OC)[C@H](OC(C)=O)[C@]5(CC)C=CCN6CC[C@]43[C@@H]65)C2)C1 [vincristine] + O=C(Oc1ccc([N+](=O)[O-])cc1)N1CCC(C(O)(c2ccc3c(c2)OCO3)c2ccc3c(c2)OCO3)CC1 [JZL184] (first compound 0.0001 µM, partner dose 1 µM) | 320% | 28.8% | 1410% | 137% | 48.4% | 89.7% | 85.8% | 84.7% |

Some of the entries above in a different format.
Compound	cleaved PARP positive nuclei fraction (501Mel)	cleaved PARP positive nuclei fraction (A101D)	cleaved PARP positive nuclei fraction (A2058)	cleaved PARP positive nuclei fraction (C32)	cleaved PARP positive nuclei fraction (CBRC008)	cleaved PARP positive nuclei fraction (CBRC014)	cleaved PARP positive nuclei fraction (CBRC016)	cleaved PARP positive nuclei fraction (CBRC017)
Cn1cc(C2=C(c3cn(C4CCN(Cc5ccccn5)CC4)c4ccccc34)C(=O)NC2=O)c2ccccc21 [Enzastaurin] + O=C(Nc1ccccc1)c1cc([N+](=O)[O-])ccc1Cl [GW9662] (first compound 0.8 µM, partner dose 2 µM)	67.5%	35.6%	126%	87.1%	128%	118%	39.4%	82.7%
C[C@@H](Oc1cc(-c2cnn(C3CCNCC3)c2)cnc1N)c1c(Cl)ccc(F)c1Cl [Crizotinib] + C/C(O)=C(\C#N)C(=O)Nc1cc(Br)ccc1Br [LFM-A13] (first compound 0.2 µM, partner dose 2 µM)	76.8%	47%	84.2%	39.3%	114%	103%	47%	81.2%
N.N.[Cl][Pt][Cl] [cisplatin] + COc1ccc(COc2ccc(Cc3cnc(N)nc3N)cc2OC)cc1 [GW2580] (first compound 1.6 µM, partner dose 1 µM)	185%	23.8%	160%	72.1%	267%	86.3%	56.9%	137%
CC[C@]1(O)C[C@H]2CN(CCc3c([nH]c4ccccc34)[C@@](C(=O)OC)(c3cc4c(cc3OC)N(C=O)[C@H]3[C@@](O)(C(=O)OC)[C@H](OC(C)=O)[C@]5(CC)C=CCN6CC[C@]43[C@@H]65)C2)C1 [vincristine] + O=C(Oc1ccc([N+](=O)[O-])cc1)N1CCC(C(O)(c2ccc3c(c2)OCO3)c2ccc3c(c2)OCO3)CC1 [JZL184] (first compound 0.0001 µM, partner dose 1 µM)	320%	28.8%	1410%	137%	48.4%	89.7%	85.8%	84.7%
